# Data published in PubChem BioAssay AID200 (DTP/NCI, 2004).
# The list is a part of this screen's results and no random one: it is rich in T/C values a quarter to a half above the control, in often repeated tests (any T/C) and in doses without a T/C. Other doses and runs of a compound stand elsewhere. T/C gives the treated animals as a percentage of the vehicle group. Some doses have a count of surviving animals in place of a T/C: the source files T/C as zero there, which appears to mark a toxic dose or a test without result, not a measured value. Some survivor counts are full or nearly so, which does not show that the dose was tolerated: survival well below the control is almost never listed, so the zero probably covers shortened survival too. Survivors were counted at the toxicity check, usually on the fifth day, unless a day is given; later deaths do not show. Schedules are NCI's codes, taken here to give the interval after Q, in days (D) or hours (H), and the number of doses after X. Some entries were tested several times; the results are listed from low to high. For survival time, this PubChem deposit counts one and a half times the control or more as active, and values a quarter to a half above the control carry no call in these data; other NCI protocols may use other cut-offs.
# System: B6C3F1 mice, B16 melanoma ip, median survival T/C
# Assay: NCI In Vivo Anticancer Drug Screen. Data for tumor model B16 Melanoma (intraperitoneal) in B6C3F1 mice
# Conditions: T/C endpoint: median survival time, schedule: Q01DX009 (ip), higher T/C = longer survival
# Protocol: The antitumor activity of compounds was measured in mice bearing transplantable tumors. Survival or tumor size were measured and the results are expressed as the measurement made in the treated group (T) divided by the measurement made in the vehicle treated control group (C). The tumor model used in this assay is B16 Melanoma (intraperitoneal) in B6C3F1 mice
# [1] = dose: 200.0 mg/kg/injection, vehicle: saline with Tween-80
# [2] = dose: 400.0 mg/kg/injection, vehicle: saline with Tween-80
# [3] = dose: 12.5 mg/kg/injection, vehicle: saline with Tween-80
# [4] = dose: 100.0 mg/kg/injection, vehicle: saline with Tween-80
# [5] = dose: 50.0 mg/kg/injection, vehicle: water
# [6] = dose: 200.0 mg/kg/injection, vehicle: saline
# [7] = dose: 400.0 mg/kg/injection, vehicle: saline
structure (smiles),measurement,setting,value
N=c1c(C(=O)OCc2ccccc2)ncc(CCl)n1O,survivor count,[1],10 of 10
same,survivor count,[2],9 of 10
COc1cccc2c1C(=O)c1c(O)c3c(c(O)c1C2=O)C[C@@](O)(/C(CO)=N/NC(=O)c1ccc(Cl)c(Cl)c1)C[C@@H]3OC1CC(N)C(O)C(C)O1 (stereo not given in full),T/C,"dose: 0.5 mg/kg/injection, vehicle: saline",136 % of control
COc1ccc2c(c1O)-c1cccc3c1[C@@H](C2)N(CCCl)CC3,survivor count,"dose: 16.0 mg/kg/injection, vehicle: Klucel (hydroxypropylcellulose) (HPC)",0 of 10 and 4 of 10
same,survivor count,"dose: 32.0 mg/kg/injection, vehicle: Klucel (hydroxypropylcellulose) (HPC)",0 of 10 and 1 of 10
COc1ccc(-c2c3c(cc4cc5c(cc24)OCO5)C(=O)OC3)cc1OC,survivor count,"dose: 96.0 mg/kg/injection, vehicle: Klucel (hydroxypropylcellulose) (HPC)",6 of 6
C1OCN2CSCC12 (stereo not given),survivor count,[2],6 of 10
CCCCc1ccc2nc(NC(=O)OC)[nH]c2c1,T/C,"dose: 6.25 mg/kg/injection, vehicle: saline with Tween-80",133 % of control
same,T/C,[3],146 % of control
same,survivor count,[1],9 of 10
CC(=O)Nc1ccc(C(=O)C=O)cc1,survivor count,[1],7 of 9 and 10 of 10
COc1cc(/C=C/[N+](=O)[O-])cc(Br)c1OC,survivor count,[3],10 of 10
same,survivor count,"dose: 25.0 mg/kg/injection, vehicle: saline with Tween-80",10 of 10
same,survivor count,"dose: 50.0 mg/kg/injection, vehicle: saline with Tween-80",6 of 10
same,survivor count,[4],0 of 10
Cc1c(-c2ccc(-c3ccccc3F)cc2)nc2ccc(F)cc2c1C(=O)O,T/C,"dose: 12.5 mg/kg/injection, vehicle: water",127 % of control
same,survivor count,"dose: 25.0 mg/kg/injection, vehicle: water",10 of 10
same,T/C,[5],126 % of control
same,survivor count,[5],10 of 10
same,survivor count,"dose: 100.0 mg/kg/injection, vehicle: water",9 of 10 and 10 of 10
COC(OC(CO)C(O)S(=O)(=O)O)C(O)S(=O)(=O)O (stereo not given),T/C,"dose: 50.0 mg/kg/injection, vehicle: saline",133 % of control
same,T/C,[6],135 % of control
same,survivor count,[7],5 of 10
CCOC(=O)c1c[nH]c2oc(/C=N/N3CC(CN4CCOCC4)OC3=O)cc2c1=O (stereo not given),T/C,"dose: 100.0 mg/kg/injection, vehicle: saline",125 % of control
same,T/C,[6],130 % of control
CCS(=O)(=O)OCCCCOS(=O)(=O)CC,survivor count,[4],7 of 10
same,survivor count,[1],0 of 10
NC(Cc1ccc(O)c(Cl)c1)C(=O)O (stereo not given),survivor count,[7],10 of 10
COc1cc2cc(c1Cl)N1CCC(C)(O)C(=O)NC(C)C(=O)OC(CC1=O)C1(C)OC1C(C)C1CC(O)(NC(=O)O1)C(OC)/C=C\C=C(\C)C2OC (stereo not given),T/C,"dose: 4.0 micrograms/kg/injection, vehicle: distilled water + alcohol",130 % of control
O=C(Nc1cccc(Cl)c1)C1CCCC1=Nc1cccc(Cl)c1 (stereo not given),survivor count,[2],10 of 10
